PubChem BioAssay AID686943 – Drosophila RNAi Screening Center – 2013

- Assay: 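Fly genes whose loss alters ERK activation after insulin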 (primary screen)
- System: Drosophila S2R+ haemocyte-like cells expressing YFP-tagged ERK (Rolled)
- Knock-down reagent: long dsRNA against Drosophila genes
- Treatment: insulin stimulation versus unstimulated cells; dose and duration not given
- Detection: 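Antibody staining for doubly phosphorylated ERK divided by ERK-YFP signal, as plate z-scores, in insulin-treated and untreated cells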
- Scale: replicate 1, z-score of dpERK with insulin and replicate 2, z-score of dpERK with insulin: higher = more active ERK per ERK-YFP after insulin; replicate 1, z-score of dpERK under basal conditions: higher = more basal active ERK per ERK-YFP
The deposit covers about 23,000 reagents; this is an unselected part of those that have a named target and a result. 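Extra replicates exist only for a retested subset of genes; insulin dose and duration not given; both raised and lowered dpERK matter.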 A plus sign joins genes that one reagent is predicted to hit. Not all columns of the deposit are shown. Not stated in the record: the amount of reagent, the time to read-out.

gene knocked down | dsRNA | replicate 1, z-score of dpERK with insulin | replicate 2, z-score of dpERK with insulin | replicate 1, z-score of dpERK under basal conditions
CG14767 | DRSC06500 | 0.12 | 1.16 | 0.26
CG7755 | DRSC07040 | 1.38 | 0.06 | -0.05
MstProx | DRSC12458 | 0.83 | -0.59 | 0.05
MstProx | DRSC12601 | 0.11 | 0.21 | -1.59
Vm34Ca | DRSC03475 | 0.7 | 0.19 | -0.39
CG15446 | DRSC20518 | 0.09 | 0.85 | -0.08
CG11694 | DRSC14354 | 0.24 | 0.53 | -1.17
CG42516 + Pbp49 | DRSC06073 | -0.19 | 0.27 | -0.44
CG13457 | DRSC10004 | -0.05 | -1.34 | 0.42
Clamp | DRSC03718 | 0.31 | 0.75 | -0.1
Clamp | DRSC21682 | 1.47 | 1.46 | -0.8
mRpL22 | DRSC19915 | -1.18 | 0.68 | -1.33
CG15107 | DRSC06534 | 0.89 | 1.41 | 1.86
CG31226 | DRSC21724 | 0.51 | 0.61 | -1.56
CG15435 | DRSC00450 | 0.51 | 0.36 | -0.54
CG9004 | DRSC08617 | 0.7 | 0.2 | 0.37
feo | DRSC19398 | -0.85 | 0.33 | -1.34
sphinx2 | DRSC22188 | -0.46 | 0.01 | -0.46
Arf6 | DRSC05921 | -1.49 | -1.38 | 0.48
Smyd4-2 | DRSC10126 | -0.01 | 0.78 | -0.11
sicily | DRSC19704 | 0.01 | 0.99 | -0.39
mRpL1 | DRSC16251 | 0.11 | -1.42 | -2.21
CG14854 | DRSC14978 | 0.86 | 0.58 | -0.11
MCPH1 | DRSC06309 | -0.04 | -0.13 | 0.27
MCPH1 | DRSC07308 | 0.1 | 0.64 | -0.58
MCPH1 | DRSC22536 | -0.03 | -0.61 | -0.24
mon2 | DRSC03112 | 0.09 | 1.16 | 1.32
Svil | DRSC07981 | -0.76 | -0.38 | -0.68
Svil | DRSC08296 | -0.36 | -0.36 | -0.66
Svil | DRSC08332 | -0.85 | -0.63 | -0.29
Svil | DRSC08333 | -4.43 | -2.66 | 0.8
Svil | DRSC08494 | -0.55 | -0.04 | 1.4
alpha-Est10 | DRSC12613 | 0.88 | 0.92 | -1.67
osi | DRSC02931 | 0.3 | -1.22 | 0.05
CG43132 (retired record) | DRSC19484 | -0.07 | 0.22 | 0.45
CG3222 | DRSC10355 | -0.38 | 0.22 | 0.42
Pgant2 | DRSC00587 | -0.04 | 0.65 | -0.5
CG13742 + CNT1 | DRSC06413 | 0.26 | 0.46 | 0.22
eEF1beta | DRSC07419 | 1.13 | -0.44 | 0.1
vtd | DRSC20839 | -0.8 | 0.27 | -2.05
CG13492 | DRSC04137 | 0.47 | 0.09 | 0.71
CR32821 + CR43381 + CR43377 + 1 more | DRSC22544 | -1.26 | 0.21 | -0.19
fng | DRSC11455 | -0.03 | -0.14 | 0.11
fng | DRSC11887 | 0.08 | 0.2 | 0.6
fng | DRSC21935 | -0.47 | -0.39 | 0.59
CG31391 | DRSC16047 | -0.21 | -1.44 | 0.26
Rab4 + CG42239 | DRSC05667 | 0.27 | -0.37 | -0.51
CG8191 + CG12379 | DRSC19451 | -0.5 | 0.36 | -0.23
mthl4 | DRSC06998 | 0.2 | -0.11 | 1.1
cac | DRSC19743 | 0.47 | -0.88 | -0.08
cac | DRSC20354 | -0.15 | -0.08 | -0.03
CG12374 | DRSC06143 | -0.04 | 0.37 | 0.51
GCS1 | DRSC19744 | -0.13 | 0.14 | -0.22
Slik | DRSC04471 | -0.36 | -0.37 | 0.26
brun | DRSC02706 | -0.71 | -0.94 | -1.57
Lamtor2 + CG30120 | DRSC05726 | -0.4 | -0.43 | 0.93
Lamtor2 + CG30120 | DRSC06922 | -0.66 | -1.15 | -0.54

A run of entries of the results above, as a working copy:
gene knocked down | dsRNA | replicate 1, z-score of dpERK with insulin | replicate 2, z-score of dpERK with insulin | replicate 1, z-score of dpERK under basal conditions
Svil | DRSC08332 | -0.85 | -0.63 | -0.29
Svil | DRSC08333 | -4.43 | -2.66 | 0.8
Svil | DRSC08494 | -0.55 | -0.04 | 1.4
alpha-Est10 | DRSC12613 | 0.88 | 0.92 | -1.67
osi | DRSC02931 | 0.3 | -1.22 | 0.05
CG43132 (retired record) | DRSC19484 | -0.07 | 0.22 | 0.45
CG3222 | DRSC10355 | -0.38 | 0.22 | 0.42
